Measured values from EP4653001A1, “TREATMENT, DIAGNOSIS AND/OR PROGNOSIS OF MITOCHONDRIAL DISEASES” (Universidad Autónoma de Madrid, priority 2024, dated 2025).
For at least one compound, name, drawing or mass did not settle the structure.

Tested on: 143B cells
Assay: ROS measurement (CM-H2DCFDA) in 143B cells
Format: cell-based
Details: IDH-dependent, Piericidin plus G6PDi, 2 mM supplement

With `COC(=O)CC(O)(CC(=O)OC)C(=O)OC` [trimethyl-citrate] the oxidative stress was “protected”.
